From PubChem BioAssay AID504444 (National Center for Advancing Translational Sciences (NCATS), 2011)
Screen size: about 360,000 compounds; about 7,500 (2.1%) were called active. The inconclusive results got no clear call from the source; some entries with a clear call stand among them for comparison. Calls follow the shape of the dose curve; as a rule, active = well fitted inhibition curve with a large enough effect; inconclusive = small, poorly fitted or top-dose-only effect, or effect the other way; inactive = flat fitted curve, though single readings scatter. Potencies of inconclusive entries are doubtful fits and often do not repeat.

Test: Nrf2 qHTS screen for inhibitors; also: nearly all actives have a fitted effect of over 60% in size
Conditions: A549 ARE-Fluc reporter, luciferase luminescence, 18-24 h; activity change, negative = inhibition: at 46 µM (top of the series)
Procedure, shortened: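 In this cell-based qHTS, ARE-driven firefly luciferase in A549 cells reports Nrf2 activity; the luminescent signal after BugLite lysis is the measured value, with a prior CellTiter-Fluor read for cell health.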
% is scaled to controls: 0 for no effect and ±100 for the full control effect; potency is read from the fitted curve at half-maximal effect.

Row | Structure (SMILES) | Potency | activity change, negative = inhibition
1 | COc1cc(CNc2ccc(O)cc2)cc(Br)c1OCc1ccccc1 | inconclusive: 29.1 µM [falling, single point] | –
2 | COc1ccc(-c2cc(C(=O)NN)[nH]n2)cc1OC | – | inactive: 8.45%
3 | Cn1ncc2c(=S)nc(Cl)[nH]c21 | – | inactive: -0.0278%
4 | COc1ccc(-n2c(COc3cccc4ccccc34)nnc2SCC(=O)NCc2ccco2)cc1 | inconclusive: 32.6 µM [falling, single point] | –
5 | CCN1CCCC1CNC(=O)C(=O)Nc1ccccc1 (stereo not drawn) | inconclusive: 20.6 µM [activator, partial curve] | –
6 | Cc1ccc(Sc2ccc(C(=O)N3CCOCC3)cc2[N+](=O)[O-])cc1 | inconclusive: 14.6 µM [falling, partial curve, poor fit] | –
7 | COc1cccc(NC(=O)C(=O)NCc2ccncc2)c1 | inconclusive: 9.2 µM [activator, partial curve] | –
8 | CC(C)n1c(N2CCN(C(=O)Nc3ccccc3)CC2)nc2ccccc21 | inconclusive: 11.6 µM [falling, partial curve] | –
9 | CCc1nc(SC)ncc1C(=O)NCc1cccc(Br)c1 | inconclusive: 29.1 µM [activator, single point] | –
10 | Cc1ccc(NC(=O)c2c(NC(=O)CCC(=O)O)sc3c2CCCCC3)cc1 | inconclusive: 20.6 µM [activator, single point] | –
11 | COc1ccc(-c2cn3ccsc3n2)cc1 | inconclusive: 0.366 µM [activator, full curve] | –
12 | COc1cc(NC(=O)Cn2nc(-c3ccc(F)cc3)ccc2=O)ccc1-n1cnnn1 | active: 25.9 µM | –
13 | COc1cccc(C(c2nnnn2CCc2ccccc2)N2CCN(c3ccccc3)CC2)c1OC (stereo not drawn) | inconclusive: 10.3 µM [falling, partial curve, poor fit] | –
14 | Cc1ccc(Cl)cc1N1CCN(c2nc3ccc(C(=O)c4ccccc4)cc3n3cnnc23)CC1 | – | inactive: 14.3%
15 | COc1ccc2cc3cc(C(=O)NC(C)C)oc3nc2c1 | – | inactive: -13.6%
16 | Cc1ccc(OCc2ccc(C(=O)NN)o2)cc1C | inconclusive: 4.61 µM [activator, full curve] | –
17 | COc1ccc(CNC(=O)c2ccc(CN3C(=O)C(C)=C(c4ccc(C)cc4)S3(=O)=O)cc2)cc1 | inconclusive: 29.1 µM [falling, single point] | –
18 | O=C(COC(=O)c1ccc2c(c1)OCCO2)NCCc1ccccc1 | inconclusive: 29.1 µM [activator, single point] | –
19 | CN(C)C(=S)NC(=S)Nc1ccc2ccccc2c1 | inconclusive: 20.6 µM [activator, single point] | –
20 | CCOC(=O)c1cccc(NC(=O)CSc2nc3ccccc3c(=O)n2CC)c1 | inconclusive: 5.17 µM [falling, partial curve, poor fit] | –
21 | O=S(=O)(c1ccccc1OC(F)(F)F)N1CCN(c2ccnc3cc(Cl)ccc23)CC1 | inconclusive: 23.1 µM [falling, single point] | –
22 | CCN(CCCNC(=O)c1[nH]c(C)c(C(C)=O)c1C)c1ccccc1 | inconclusive: 8.2 µM [falling, partial curve] | –

Row | Structure (SMILES) | Potency | activity change, negative = inhibition
23 | COc1ccc(S(=O)(=O)N2CCC(c3cc(-c4cccc5ccccc45)n[nH]3)CC2)cc1 | inconclusive: 16.4 µM [falling, partial curve] | –
24 | CCCCC(CC)CNC(=O)CN(C)S(=O)(=O)c1cccc2nsnc12 (stereo not drawn) | inconclusive: 16.4 µM [falling, partial curve] | –
25 | COCCNC(=S)N1CCc2cc(OC)c(OC)cc2C1c1cccs1 (stereo not drawn) | inconclusive: 5.17 µM [activator, full curve] | –
26 | CN(CC(=O)NC1CCCCCC1)S(=O)(=O)c1ccccc1 | inconclusive: 9.2 µM [activator, partial curve] | –
27 | O=C(/C=C/c1ccc(O)cc1)c1ccc(NC2=C(N3CCCCC3)C(=O)c3ccccc3C2=O)cc1 | active: 14.6 µM | –
28 | CCOC(=O)c1sc(NC(=O)c2sc(C)nc2C)nc1C | inconclusive: 13 µM [activator, partial curve] | –
29 | O=C(Nc1ccc(OC(F)F)c(Cl)c1)C(c1ccccc1)c1ccccc1 | inconclusive: 29.1 µM [falling, single point] | –
30 | CC(=O)c1cccc(NC(=O)Nc2ccc3c(c2)OCO3)c1 | – | inactive: 24.2%
31 | COc1ccc(NC(=O)C2CCN(S(=O)(=O)c3ccc4c(c3)NC(=O)CO4)CC2)cc1 | inconclusive: 25.9 µM [falling, partial curve, poor fit] | –
32 | NC(=O)c1ccc2nc(-c3ccccc3)c(-c3ccccc3)nc2c1 | – | inactive: -29.2%
33 | Cc1cccc(NC(=O)c2nc[nH]c2C(=O)Nc2cccc(C)c2)c1 | inconclusive: 29.1 µM [falling, single point] | –
34 | CCN(c1ccccc1C)S(=O)(=O)c1nnc(NC(=O)c2ccc(OC)c(OC)c2)s1 | inconclusive: 0.651 µM [activator, partial curve, poor fit] | –
35 | CCN(CC)S(=O)(=O)c1cccc(NC(=O)CCNC(=O)c2ccc([N+](=O)[O-])cc2)c1 | active: 23.1 µM | –
36 | CCN(CC)C(=O)CSc1nnc(-n2nc(C)cc2C)c2ccccc12 | – | inactive: -18.7%
37 | Cc1cc(C(=O)CSc2nnnn2C)c(C)n1C1CC1 | inconclusive: 29.1 µM [activator, single point] | –
38 | CC(C)CCOc1cccc(OCC(=O)Nc2ccncc2)c1 | active: 9.2 µM | –
39 | Cc1ccc(NC(=O)CSc2nnc(-c3cccnc3)s2)cc1 | – | inactive: 12.3%
40 | COC(=O)c1cc(NC(=O)Cc2coc3cc(OC)ccc23)cc(C(=O)OC)c1 | inconclusive: 14.6 µM [falling, single point] | –
41 | CN(C)c1ccc(CN(C(=O)/C=C/c2ccccc2Cl)C2CCS(=O)(=O)C2)cc1 (stereo not drawn) | inconclusive: 18.4 µM [falling, single point] | –
42 | O=C(Nc1ccc(C(F)(F)F)cc1)c1cccc(-n2cnnn2)c1 | inconclusive: 32.6 µM [falling, partial curve, poor fit] | –
43 | CCCc1cc(=O)[nH]c(SCC(=O)N2c3ccccc3NC(=O)C2(C)C)n1 | inconclusive: 4.11 µM [activator, full curve, poor fit] | –

Part of the list above, tab-delimited.
Row	Structure (SMILES)	Potency	activity change, negative = inhibition
15	COc1ccc2cc3cc(C(=O)NC(C)C)oc3nc2c1	–	inactive: -13.6%
28	CCOC(=O)c1sc(NC(=O)c2sc(C)nc2C)nc1C	inconclusive: 13 µM [activator, partial curve]	–
